{"source": "PubChem BioAssay AID1259254 | NCATS – 2017", "purpose": "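Genome-wide screen for genes that prevent DNA re-replication in cancer cells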 (primary screen)", "system": "human HCT116 colorectal cancer cells", "reagents": "single siRNA against human genes", "timing": "3 days", "measured": "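Nuclei stained with Hoechst and imaged; cell-cycle phase assigned by DNA content; G2 share scaled per plate, non-targeting siRNA 0%, GMNN siRNA 100%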", "scale": "G2 robust z-score: higher = more G2 cells, more excess DNA replication", "call rule": "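An siRNA counts as active if its G2 robust z-score lies at least 5 MADs above the screen median; here such calls match roughly 38% of GMNN control or more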", "note": "Shown is one part, drawn at random, of about 59,000 reagents. About 1,550 of them (2.6%) count as active. 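G2 share is only a proxy for re-replication; each gene was hit by three separate siRNAs, and active genes were retested.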 Unmarked entries are inactive. The numbers tell different reagents against one gene apart. Not all columns of the deposit are shown. No sequences are given here. Not stated in the record: the amount of reagent."}
The first 2 records, ahead of the listing:
{"gene knocked down": "RPS7P4 (ribosomal protein S7 pseudogene 4)", "siRNA no.": 1, "G2 robust z-score": -0.31}
{"gene knocked down": "RPS7P4 (ribosomal protein S7 pseudogene 4)", "siRNA no.": 2, "G2 robust z-score": 2.93}

Results, from the start:
{"gene knocked down": "RPS7P4 (ribosomal protein S7 pseudogene 4)", "siRNA no.": 1, "G2 robust z-score": -0.31}
{"gene knocked down": "RPS7P4 (ribosomal protein S7 pseudogene 4)", "siRNA no.": 2, "G2 robust z-score": 2.93}
{"gene knocked down": "RPS7P4 (ribosomal protein S7 pseudogene 4)", "siRNA no.": 3, "G2 robust z-score": 1.14}
{"gene knocked down": "OTOA (otoancorin)", "siRNA no.": 1, "G2 robust z-score": 2.46}
{"gene knocked down": "OTOA (otoancorin)", "siRNA no.": 2, "G2 robust z-score": -0.25}
{"gene knocked down": "OTOA (otoancorin)", "siRNA no.": 3, "G2 robust z-score": -0.618}
{"gene knocked down": "GLYAT (glycine-N-acyltransferase)", "siRNA no.": 1, "G2 robust z-score": -0.0695}
{"gene knocked down": "GLYAT (glycine-N-acyltransferase)", "siRNA no.": 2, "G2 robust z-score": -0.22}
{"gene knocked down": "GLYAT (glycine-N-acyltransferase)", "siRNA no.": 3, "G2 robust z-score": 2.33}
{"gene knocked down": "GIMAP8 (GTPase, IMAP family member 8)", "siRNA no.": 1, "G2 robust z-score": -0.624}
{"gene knocked down": "GIMAP8 (GTPase, IMAP family member 8)", "siRNA no.": 2, "G2 robust z-score": -0.189}
{"gene knocked down": "GIMAP8 (GTPase, IMAP family member 8)", "siRNA no.": 3, "G2 robust z-score": "6.42 (active)"}
{"gene knocked down": "POMGNT2", "siRNA no.": 1, "G2 robust z-score": -0.807}
{"gene knocked down": "POMGNT2", "siRNA no.": 2, "G2 robust z-score": 1.5}
{"gene knocked down": "POMGNT2", "siRNA no.": 3, "G2 robust z-score": -0.896}
{"gene knocked down": "XKR4 (XK related 4)", "siRNA no.": 1, "G2 robust z-score": 0.291}
{"gene knocked down": "XKR4 (XK related 4)", "siRNA no.": 2, "G2 robust z-score": 0.236}
{"gene knocked down": "XKR4 (XK related 4)", "siRNA no.": 3, "G2 robust z-score": -0.711}
{"gene knocked down": "INPP4B (inositol polyphosphate-4-phosphatase type II B)", "siRNA no.": 1, "G2 robust z-score": 1.16}
{"gene knocked down": "INPP4B (inositol polyphosphate-4-phosphatase type II B)", "siRNA no.": 2, "G2 robust z-score": 1.22}
{"gene knocked down": "INPP4B (inositol polyphosphate-4-phosphatase type II B)", "siRNA no.": 3, "G2 robust z-score": 0.0451}
{"gene knocked down": "TMPRSS11A (transmembrane serine protease 11A)", "siRNA no.": 1, "G2 robust z-score": 0.813}
{"gene knocked down": "TMPRSS11A (transmembrane serine protease 11A)", "siRNA no.": 2, "G2 robust z-score": -0.777}
{"gene knocked down": "TMPRSS11A (transmembrane serine protease 11A)", "siRNA no.": 3, "G2 robust z-score": 0.0817}
{"gene knocked down": "CCDC181 (coiled-coil domain containing 181)", "siRNA no.": 1, "G2 robust z-score": 2.87}
{"gene knocked down": "CCDC181 (coiled-coil domain containing 181)", "siRNA no.": 2, "G2 robust z-score": -0.191}
{"gene knocked down": "CCDC181 (coiled-coil domain containing 181)", "siRNA no.": 3, "G2 robust z-score": 1.07}
{"gene knocked down": "DAGLB (diacylglycerol lipase beta)", "siRNA no.": 1, "G2 robust z-score": -0.0538}
{"gene knocked down": "DAGLB (diacylglycerol lipase beta)", "siRNA no.": 2, "G2 robust z-score": 1.57}
{"gene knocked down": "DAGLB (diacylglycerol lipase beta)", "siRNA no.": 3, "G2 robust z-score": "10.5 (active)"}
